Laboratory results published in publication PMC10602526.
No constants are given. Whether binding was seen depends on the method and setting. In cells and extracts the contact can be indirect. Some binding calls cover weakened binding; strength is not graded here. Where a sequence is shown, tags or fusion partners need not be part of it.

Biological target: SEC23B wild type in the anti-FLAG pull-down of Figure S9D,E, Q15437
Test: co-IP; printed as 'anti-FLAG pull-down assay'; SEC23B wild type against K81R (Figure S9D,E); further conditions not shown
Settings: remark: other sources report otherwise

B1: SEC13 in the anti-FLAG pull-down of Figure S9D,E, P55735 1-322 (protein)
chain: MVSVINTVDTSHEDMIHDAQMDYYGTRLATCSSDRSVKIFDVRNGGQILIADLRGHEGPVWQVAWAHPMYGNILASCSYDRKVIIWREENGTWEKSHEHAGHDSSVNSVCWAPHDYGLILACGSSDGAISLLTYTGEGQWEVKKINNAHTIGCNAVSWAPAVVPGSLIDHPSGQKPNYIKRFASGGCDNLIKLWKEEEDGQWKEEQKLEAHSDWVRDVAWAPSIGLPTSTIASCSQDGRVFIWTCDDASSNTWSPKLLHKFNDVVWHVSWSITANILAVSGGDNKVTLWKESVDGQWVCISDVNKGQGSVSASVTEGQQNEQ
**Q.** B1 was tested. Which binding did it give?
**A.** binds
